± gives the standard deviation of the averaged measurements. Some of the results follow.
Compound: Nc1nc2c(ncn2[C@@H]2O[C@H](COP(=O)(O)OP(=O)(O)OP(=O)(O)O)[C@@H](O)[C@H]2O)c(=O)[nH]1 [guanosine triphosphate]
Assay: NP40-soluble protein abundance relative to vehicle (solubility fold change) (ratio); higher = more soluble protein in presence of GTP
In short: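 Jurkat crude lysate prepared with a Dounce homogeniser was treated at eight concentrations spanning 0.1 to 10 mM, 10 min at room temperature then 3 min at 37 °C. Solubilisation with 0.8% NP40 and benzonase and ultracentrifugation preceded TMT labelling of the supernatant for LC-MS/MS. Fold change against the detergent-processed vehicle was determined per replicate from vsn-normalised intensities, across three independent experiments.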

The chains behind the UniProt entries cited, without tags or fusion partners. Where a name states a change or a piece, a line headed by the entry shows the natural chain unless it says otherwise.
UniProt Q9Y2W6: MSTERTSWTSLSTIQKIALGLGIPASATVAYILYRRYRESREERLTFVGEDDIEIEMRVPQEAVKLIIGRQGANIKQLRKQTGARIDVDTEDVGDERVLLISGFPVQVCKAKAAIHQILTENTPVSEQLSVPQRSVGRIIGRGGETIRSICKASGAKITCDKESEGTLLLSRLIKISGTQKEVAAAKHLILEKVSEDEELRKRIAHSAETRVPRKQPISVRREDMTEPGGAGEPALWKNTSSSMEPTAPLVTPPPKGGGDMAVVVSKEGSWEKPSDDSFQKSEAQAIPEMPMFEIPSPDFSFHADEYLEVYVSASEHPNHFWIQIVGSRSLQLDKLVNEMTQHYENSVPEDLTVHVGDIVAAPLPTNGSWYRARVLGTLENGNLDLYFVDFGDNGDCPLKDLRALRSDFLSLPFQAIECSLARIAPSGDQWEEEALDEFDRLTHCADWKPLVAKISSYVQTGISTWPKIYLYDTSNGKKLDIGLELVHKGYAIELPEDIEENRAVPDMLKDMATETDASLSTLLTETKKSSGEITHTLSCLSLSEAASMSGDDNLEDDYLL
UniProt Q92844: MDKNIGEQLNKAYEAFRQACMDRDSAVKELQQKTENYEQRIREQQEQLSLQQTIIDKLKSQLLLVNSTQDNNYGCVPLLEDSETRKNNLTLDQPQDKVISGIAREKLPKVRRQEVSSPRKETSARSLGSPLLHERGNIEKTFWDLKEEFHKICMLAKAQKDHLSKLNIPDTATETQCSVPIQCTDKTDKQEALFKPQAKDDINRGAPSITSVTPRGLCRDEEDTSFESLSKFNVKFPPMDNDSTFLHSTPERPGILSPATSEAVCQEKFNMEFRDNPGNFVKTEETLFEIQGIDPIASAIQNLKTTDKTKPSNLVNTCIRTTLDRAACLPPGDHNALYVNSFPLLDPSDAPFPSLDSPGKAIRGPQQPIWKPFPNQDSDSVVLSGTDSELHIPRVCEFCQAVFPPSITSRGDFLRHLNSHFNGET
UniProt Q8NG08: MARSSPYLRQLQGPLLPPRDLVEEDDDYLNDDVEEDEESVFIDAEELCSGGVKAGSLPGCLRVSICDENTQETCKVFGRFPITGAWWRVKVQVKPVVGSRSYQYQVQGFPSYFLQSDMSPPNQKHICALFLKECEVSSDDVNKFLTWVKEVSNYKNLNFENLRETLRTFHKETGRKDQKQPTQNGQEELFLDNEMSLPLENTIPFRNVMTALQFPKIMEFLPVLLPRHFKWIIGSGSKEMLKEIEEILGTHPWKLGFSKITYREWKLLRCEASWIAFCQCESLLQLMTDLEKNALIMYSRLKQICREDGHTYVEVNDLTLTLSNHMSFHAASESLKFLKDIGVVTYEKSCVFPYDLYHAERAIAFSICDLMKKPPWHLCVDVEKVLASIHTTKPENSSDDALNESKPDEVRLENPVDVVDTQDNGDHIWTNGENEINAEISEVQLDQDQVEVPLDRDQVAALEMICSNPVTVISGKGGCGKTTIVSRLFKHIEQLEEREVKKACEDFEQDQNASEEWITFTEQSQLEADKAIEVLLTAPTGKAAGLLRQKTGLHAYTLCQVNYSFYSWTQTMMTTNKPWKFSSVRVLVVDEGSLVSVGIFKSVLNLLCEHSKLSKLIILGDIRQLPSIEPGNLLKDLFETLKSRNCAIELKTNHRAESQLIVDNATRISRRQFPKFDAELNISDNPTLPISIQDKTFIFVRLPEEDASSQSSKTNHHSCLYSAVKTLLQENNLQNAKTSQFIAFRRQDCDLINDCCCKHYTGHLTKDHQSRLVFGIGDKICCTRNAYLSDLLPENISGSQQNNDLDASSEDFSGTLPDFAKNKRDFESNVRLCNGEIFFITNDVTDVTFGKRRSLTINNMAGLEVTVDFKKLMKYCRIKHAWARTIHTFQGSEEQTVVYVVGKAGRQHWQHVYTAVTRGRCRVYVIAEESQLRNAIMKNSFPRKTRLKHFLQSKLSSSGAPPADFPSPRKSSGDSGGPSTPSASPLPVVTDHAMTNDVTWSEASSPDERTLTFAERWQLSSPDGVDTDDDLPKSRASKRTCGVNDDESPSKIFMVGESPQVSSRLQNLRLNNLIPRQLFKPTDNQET
UniProt P09496: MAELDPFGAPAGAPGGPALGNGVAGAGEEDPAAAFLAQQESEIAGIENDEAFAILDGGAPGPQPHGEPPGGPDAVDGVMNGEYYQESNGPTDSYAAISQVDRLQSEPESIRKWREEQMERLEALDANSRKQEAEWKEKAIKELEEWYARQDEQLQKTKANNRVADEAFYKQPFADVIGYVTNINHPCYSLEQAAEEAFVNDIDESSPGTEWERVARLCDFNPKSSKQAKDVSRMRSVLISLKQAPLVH
UniProt Q69YH5: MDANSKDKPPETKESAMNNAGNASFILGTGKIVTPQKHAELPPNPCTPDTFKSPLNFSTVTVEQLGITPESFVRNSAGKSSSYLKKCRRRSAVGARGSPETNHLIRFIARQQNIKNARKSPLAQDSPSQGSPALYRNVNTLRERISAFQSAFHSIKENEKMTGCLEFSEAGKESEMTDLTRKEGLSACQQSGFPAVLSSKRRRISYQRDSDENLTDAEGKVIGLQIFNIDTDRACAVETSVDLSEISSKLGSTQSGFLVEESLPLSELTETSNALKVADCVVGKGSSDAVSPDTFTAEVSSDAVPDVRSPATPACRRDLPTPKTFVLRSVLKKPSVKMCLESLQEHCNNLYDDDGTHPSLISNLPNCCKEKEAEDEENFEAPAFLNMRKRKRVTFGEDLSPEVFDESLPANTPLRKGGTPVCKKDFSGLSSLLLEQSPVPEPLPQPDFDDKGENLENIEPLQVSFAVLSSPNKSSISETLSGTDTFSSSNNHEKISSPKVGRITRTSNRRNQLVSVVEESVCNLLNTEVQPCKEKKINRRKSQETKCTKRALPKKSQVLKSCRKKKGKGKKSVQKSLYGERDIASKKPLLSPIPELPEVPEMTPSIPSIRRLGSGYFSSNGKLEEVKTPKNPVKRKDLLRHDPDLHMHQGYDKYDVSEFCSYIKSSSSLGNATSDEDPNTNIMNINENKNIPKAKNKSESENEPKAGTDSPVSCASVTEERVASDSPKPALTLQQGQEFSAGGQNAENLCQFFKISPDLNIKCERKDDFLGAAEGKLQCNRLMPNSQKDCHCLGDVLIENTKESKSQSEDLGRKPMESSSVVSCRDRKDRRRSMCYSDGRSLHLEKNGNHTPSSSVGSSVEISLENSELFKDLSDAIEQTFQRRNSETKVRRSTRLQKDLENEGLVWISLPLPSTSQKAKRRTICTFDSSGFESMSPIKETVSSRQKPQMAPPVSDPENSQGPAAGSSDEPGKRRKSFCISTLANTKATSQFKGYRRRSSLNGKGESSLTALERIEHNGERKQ
UniProt Q8NEY8: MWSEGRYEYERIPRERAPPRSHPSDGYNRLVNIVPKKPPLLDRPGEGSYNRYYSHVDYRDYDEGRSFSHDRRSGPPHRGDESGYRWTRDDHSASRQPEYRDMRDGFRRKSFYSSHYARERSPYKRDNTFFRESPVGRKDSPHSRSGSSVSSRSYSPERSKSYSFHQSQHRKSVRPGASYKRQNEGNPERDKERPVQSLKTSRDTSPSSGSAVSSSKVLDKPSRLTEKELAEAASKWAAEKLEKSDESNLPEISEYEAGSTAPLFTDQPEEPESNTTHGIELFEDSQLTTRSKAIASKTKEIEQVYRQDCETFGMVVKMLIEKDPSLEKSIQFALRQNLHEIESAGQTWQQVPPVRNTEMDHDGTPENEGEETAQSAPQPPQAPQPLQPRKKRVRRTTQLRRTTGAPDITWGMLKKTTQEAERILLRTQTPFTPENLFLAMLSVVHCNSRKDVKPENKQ
UniProt A2RUS2: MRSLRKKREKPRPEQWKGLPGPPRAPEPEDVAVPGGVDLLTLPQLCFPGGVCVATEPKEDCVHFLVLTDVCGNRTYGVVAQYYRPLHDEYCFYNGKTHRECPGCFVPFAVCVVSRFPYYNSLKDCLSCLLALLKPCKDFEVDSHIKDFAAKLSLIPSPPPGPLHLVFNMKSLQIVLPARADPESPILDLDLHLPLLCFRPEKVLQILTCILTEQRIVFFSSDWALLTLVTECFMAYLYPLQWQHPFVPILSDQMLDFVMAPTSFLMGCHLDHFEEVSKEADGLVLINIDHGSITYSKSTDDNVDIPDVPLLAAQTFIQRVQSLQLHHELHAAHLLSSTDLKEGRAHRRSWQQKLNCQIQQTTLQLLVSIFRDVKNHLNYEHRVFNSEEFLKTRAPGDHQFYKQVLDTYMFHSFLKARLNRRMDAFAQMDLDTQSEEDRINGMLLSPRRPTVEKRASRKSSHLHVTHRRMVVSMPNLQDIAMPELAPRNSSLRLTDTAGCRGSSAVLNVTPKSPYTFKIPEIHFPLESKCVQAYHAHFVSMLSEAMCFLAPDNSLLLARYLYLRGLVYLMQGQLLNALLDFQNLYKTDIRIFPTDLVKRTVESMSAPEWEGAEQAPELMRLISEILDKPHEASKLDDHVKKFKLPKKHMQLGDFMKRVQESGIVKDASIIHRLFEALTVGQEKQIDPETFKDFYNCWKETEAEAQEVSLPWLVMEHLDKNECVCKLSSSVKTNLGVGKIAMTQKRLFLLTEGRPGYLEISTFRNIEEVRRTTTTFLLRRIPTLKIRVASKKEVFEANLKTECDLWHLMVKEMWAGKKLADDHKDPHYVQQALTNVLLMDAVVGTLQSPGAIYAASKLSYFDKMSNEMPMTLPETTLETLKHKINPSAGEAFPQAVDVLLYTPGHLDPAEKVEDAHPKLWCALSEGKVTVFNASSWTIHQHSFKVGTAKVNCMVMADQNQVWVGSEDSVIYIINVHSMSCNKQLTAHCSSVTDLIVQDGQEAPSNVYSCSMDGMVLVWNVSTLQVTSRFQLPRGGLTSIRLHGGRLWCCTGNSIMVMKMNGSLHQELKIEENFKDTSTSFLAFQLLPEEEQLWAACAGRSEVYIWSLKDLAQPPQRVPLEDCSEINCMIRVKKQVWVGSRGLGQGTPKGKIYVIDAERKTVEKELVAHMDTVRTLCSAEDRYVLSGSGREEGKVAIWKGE
UniProt Q15631: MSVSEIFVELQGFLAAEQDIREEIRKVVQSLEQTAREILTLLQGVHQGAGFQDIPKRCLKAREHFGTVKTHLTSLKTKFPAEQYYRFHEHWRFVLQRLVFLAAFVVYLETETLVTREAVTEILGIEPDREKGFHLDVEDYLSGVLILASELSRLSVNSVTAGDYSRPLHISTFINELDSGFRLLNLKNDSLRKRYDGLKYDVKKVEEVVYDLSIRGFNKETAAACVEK
UniProt Q9UI10, whole entry: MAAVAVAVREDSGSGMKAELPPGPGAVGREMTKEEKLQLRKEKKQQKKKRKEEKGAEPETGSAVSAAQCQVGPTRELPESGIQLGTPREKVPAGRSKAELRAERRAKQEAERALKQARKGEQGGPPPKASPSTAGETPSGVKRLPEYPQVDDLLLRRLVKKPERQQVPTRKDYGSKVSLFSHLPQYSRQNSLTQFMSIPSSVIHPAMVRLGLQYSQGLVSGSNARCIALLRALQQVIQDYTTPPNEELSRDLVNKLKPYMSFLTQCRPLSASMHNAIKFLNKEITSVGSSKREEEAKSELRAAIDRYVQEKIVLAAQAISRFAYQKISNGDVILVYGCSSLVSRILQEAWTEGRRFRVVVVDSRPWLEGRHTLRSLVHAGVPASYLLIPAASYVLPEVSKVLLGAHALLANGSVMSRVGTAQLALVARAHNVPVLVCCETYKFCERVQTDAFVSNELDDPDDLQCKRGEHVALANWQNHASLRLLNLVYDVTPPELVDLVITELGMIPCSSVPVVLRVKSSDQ
UniProt P27348: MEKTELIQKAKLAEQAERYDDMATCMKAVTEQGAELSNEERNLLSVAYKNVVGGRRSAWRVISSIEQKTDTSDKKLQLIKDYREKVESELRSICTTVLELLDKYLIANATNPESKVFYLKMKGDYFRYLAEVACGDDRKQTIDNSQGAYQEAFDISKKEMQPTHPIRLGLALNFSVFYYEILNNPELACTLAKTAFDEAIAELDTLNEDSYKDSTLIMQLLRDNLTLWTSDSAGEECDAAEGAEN

| Target | NP40-soluble protein abundance (concentration: 0.1mM) | NP40-soluble protein abundance (concentration: 0.5mM) | NP40-soluble protein abundance (concentration: 1mM) | NP40-soluble protein abundance (concentration: 2mM) | NP40-soluble protein abundance (concentration: 4mM) | NP40-soluble protein abundance (concentration: 6mM) | NP40-soluble protein abundance (concentration: 8mM) | NP40-soluble protein abundance (concentration: 10mM) |
| --- | --- | --- | --- | --- | --- | --- | --- | --- |
| F2Z2W7 and related entries (UniProt Q8IZ69) | 1.06 ± 0.016 | 1.07 ± 0.057 | 1.03 ± 0.018 | 1.05 ± 0.023 | 1.14 ± 0.067 | 1.13 ± 0.03 | 1.18 ± 0.018 | 1.11 ± 0.032 |
| E7EWP0 and related entries (UniProt O43674) | 1.01 ± 0.033 | 1.03 ± 0.071 | 1.02 ± 0.067 | 1.04 ± 0.1 | 1.05 ± 0.048 | 1.03 ± 0.095 | 1.04 ± 0.084 | 1.02 ± 0.06 |
| F8WAN1 and related entries (UniProt Q69YQ0) | 1.03 ± 0.076 | 1.09 ± 0.089 | 1.14 ± 0.047 | 1.08 ± 0.077 | 1.13 ± 0.064 | 1.14 ± 0.14 | 1.26 ± 0.16 | 1.26 ± 0.086 |
| F8W060 and related entries (UniProt Q9BZF1) | 0.969 ± 0.035 | 0.969 ± 0.025 | 0.954 ± 0.021 | 0.897 ± 0.025 | 0.9129 ± 0.0062 | 0.927 ± 0.037 | 0.986 ± 0.049 | 0.954 ± 0.033 |
| E9PC44 and related entries (UniProt O94855) | 1.01 ± 0.011 | 1.05 ± 0.064 | 0.989 ± 0.016 | 0.9768 ± 0.0074 | 0.94 ± 0.015 | 0.956 ± 0.012 | 0.945 ± 0.014 | 0.922 ± 0.011 |
| F6TB26 and related entries (UniProt Q9Y2W6) | 0.988 ± 0.093 | 0.99 ± 0.1 | 0.971 ± 0.11 | 0.976 ± 0.14 | 0.923 ± 0.091 | 0.944 ± 0.11 | 0.959 ± 0.091 | 0.954 ± 0.076 |
| E9PSD3 and related entries (UniProt O43427) | 1.06 ± 0.054 | 1.08 ± 0.083 | 0.964 ± 0.082 | 1.01 ± 0.11 | 0.946 ± 0.077 | 1 ± 0.061 | 0.952 ± 0.058 | 0.934 ± 0.049 |
| F6TDL0 and related entries (UniProt Q92569) | 1.1 ± 0.17 | 1.11 ± 0.25 | 1.1 ± 0.22 | 0.975 ± 0.16 | 0.937 ± 0.19 | 0.983 ± 0.2 | 0.984 ± 0.14 | 0.971 ± 0.081 |
| E7EQA9 and related entries (UniProt Q92844) | 0.8259 ± 0.0064 | 0.837 ± 0.011 | 0.97 ± 0.071 | 0.92 ± 0.016 | 0.907 ± 0.041 | 0.909 ± 0.018 | 0.9225 ± 0.0083 | 0.991 ± 0.02 |
| F5H1I4 and related entries (UniProt Q8NG08) | 1.05 ± 0.14 | 1.03 ± 0.099 | 1.02 ± 0.087 | 1.03 ± 0.13 | 0.997 ± 0.16 | 0.988 ± 0.2 | 0.932 ± 0.086 | 0.913 ± 0.036 |
| F8WF69 and related entries (UniProt P09496) | 1.03 ± 0.039 | 1.09 ± 0.086 | 1.06 ± 0.047 | 1.03 ± 0.12 | 0.99 ± 0.13 | 1.03 ± 0.1 | 1.12 ± 0.086 | 1.1 ± 0.067 |
| E7EQR4 and related entries (UniProt P15311) | 0.95 ± 0.033 | 0.978 ± 0.037 | 0.907 ± 0.055 | 0.865 ± 0.073 | 0.837 ± 0.07 | 0.872 ± 0.072 | 0.878 ± 0.051 | 0.846 ± 0.071 |
| F6UT28 and related entries (UniProt P62873) | 0.927 ± 0.045 | 0.926 ± 0.059 | 0.888 ± 0.032 | 0.849 ± 0.052 | 0.859 ± 0.028 | 0.887 ± 0.052 | 0.878 ± 0.041 | 0.863 ± 0.046 |
| E9PFK9 and related entries (UniProt Q9UJ41) | 0.984 ± 0.024 | 0.985 ± 0.042 | 0.962 ± 0.028 | 0.961 ± 0.019 | 0.963 ± 0.03 | 0.945 ± 0.026 | 0.938 ± 0.034 | 0.937 ± 0.038 |
| F8W689 and related entries (UniProt P48382) | 0.985 ± 0.053 | 0.955 ± 0.061 | 1.05 ± 0.034 | 1.05 ± 0.054 | 1.04 ± 0.036 | 1.08 ± 0.02 | 1.03 ± 0.047 | 1.13 ± 0.052 |
| F8VU90 and related entries (UniProt Q9NYL4) | 0.972 ± 0.06 | 0.968 ± 0.052 | 1.04 ± 0.018 | 1.03 ± 0.065 | 1.05 ± 0.033 | 0.996 ± 0.078 | 0.922 ± 0.041 | 0.995 ± 0.065 |
| F5H101 and related entries (UniProt Q76FK4) | 0.967 ± 0.062 | 0.964 ± 0.099 | 1.03 ± 0.07 | 1.02 ± 0.1 | 1.06 ± 0.099 | 1.1 ± 0.1 | 1.17 ± 0.038 | 1.22 ± 0.096 |
| E9PEI0 and related entries (UniProt Q69YH5) | 1.02 ± 0.056 | 0.98 ± 0.039 | 0.929 ± 0.049 | 0.998 ± 0.065 | 0.972 ± 0.04 | 0.944 ± 0.048 | 0.986 ± 0.061 | 0.984 ± 0.043 |
| F8W0Q9 and related entries (UniProt Q8NEY8) | 1.01 ± 0.022 | 1.08 ± 0.019 | 1.19 ± 0.058 | 1.28 ± 0.096 | 1.41 ± 0.18 | 1.45 ± 0.2 | 1.63 ± 0.22 | 1.77 ± 0.42 |
| E9PF32 and related entries (UniProt A2RUS2) | 1.1 ± 0.17 | 1.13 ± 0.069 | 1.05 ± 0.038 | 1.1 ± 0.19 | 1.1 ± 0.12 | 1.1 ± 0.011 | 1 ± 0.14 | 1.01 ± 0.11 |
| F8VZA0 and related entries (UniProt Q9H0K6) | 1.03 ± 0.023 | 1.02 ± 0.015 | 0.9856 ± 0.0081 | 0.985 ± 0.035 | 0.944 ± 0.074 | 1 ± 0.037 | 0.991 ± 0.071 | 0.9677 ± 0.0093 |
| E9PGT1 and related entries (UniProt Q15631) | 0.933 ± 0.018 | 0.965 ± 0.027 | 0.911 ± 0.035 | 0.909 ± 0.035 | 0.902 ± 0.037 | 0.895 ± 0.048 | 0.865 ± 0.058 | 0.905 ± 0.031 |
| E9PIK4 and related entries (UniProt O14683) | 1.02 ± 0.082 | 0.995 ± 0.038 | 0.959 ± 0.044 | 0.934 ± 0.034 | 0.966 ± 0.059 | 0.891 ± 0.013 | 0.901 ± 0.031 | 0.876 ± 0.043 |
| E7ERK9 and related entries (UniProt Q9UI10) | 0.989 ± 0.017 | 1.03 ± 0.019 | 1.03 ± 0.067 | 1.01 ± 0.047 | 1.02 ± 0.09 | 1.03 ± 0.068 | 1.06 ± 0.083 | 1.05 ± 0.097 |
| E9PG15 and related entries (UniProt P27348) | 0.787 ± 0.082 | 0.767 ± 0.071 | 0.943 ± 0.087 | 0.951 ± 0.033 | 0.887 ± 0.037 | 0.928 ± 0.051 | 0.803 ± 0.13 | 0.977 ± 0.075 |

Random excerpt: 2 records from the list, in no set order.

| Target | NP40-soluble protein abundance (concentration: 0.1mM) | NP40-soluble protein abundance (concentration: 0.5mM) | NP40-soluble protein abundance (concentration: 1mM) | NP40-soluble protein abundance (concentration: 2mM) | NP40-soluble protein abundance (concentration: 4mM) | NP40-soluble protein abundance (concentration: 6mM) | NP40-soluble protein abundance (concentration: 8mM) | NP40-soluble protein abundance (concentration: 10mM) |
| --- | --- | --- | --- | --- | --- | --- | --- | --- |
| E7EQR4 and related entries (UniProt P15311) | 0.95 ± 0.033 | 0.978 ± 0.037 | 0.907 ± 0.055 | 0.865 ± 0.073 | 0.837 ± 0.07 | 0.872 ± 0.072 | 0.878 ± 0.051 | 0.846 ± 0.071 |
| F8W0Q9 and related entries (UniProt Q8NEY8) | 1.01 ± 0.022 | 1.08 ± 0.019 | 1.19 ± 0.058 | 1.28 ± 0.096 | 1.41 ± 0.18 | 1.45 ± 0.2 | 1.63 ± 0.22 | 1.77 ± 0.42 |
